Drawing on paper PMC2562983, this text covers binding for 3 molecules.

Chains of the proteins cited; added tags and fusions are not shown. Lines headed by an entry give the natural chain unless they say otherwise; changes in a name come on top.
UniProt P63331: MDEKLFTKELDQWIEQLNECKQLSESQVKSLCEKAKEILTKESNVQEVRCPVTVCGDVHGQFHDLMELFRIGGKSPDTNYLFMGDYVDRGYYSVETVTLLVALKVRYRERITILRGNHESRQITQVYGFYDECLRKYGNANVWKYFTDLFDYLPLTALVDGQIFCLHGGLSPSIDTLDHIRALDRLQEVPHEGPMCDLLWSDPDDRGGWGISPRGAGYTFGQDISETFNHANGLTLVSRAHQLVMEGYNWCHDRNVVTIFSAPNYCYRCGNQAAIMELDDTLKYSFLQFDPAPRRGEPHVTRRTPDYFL

Assay [1] has as its target T1, p107 (rat (endogenous in RCS)) (UniProt D3ZS28).
T1 sequence: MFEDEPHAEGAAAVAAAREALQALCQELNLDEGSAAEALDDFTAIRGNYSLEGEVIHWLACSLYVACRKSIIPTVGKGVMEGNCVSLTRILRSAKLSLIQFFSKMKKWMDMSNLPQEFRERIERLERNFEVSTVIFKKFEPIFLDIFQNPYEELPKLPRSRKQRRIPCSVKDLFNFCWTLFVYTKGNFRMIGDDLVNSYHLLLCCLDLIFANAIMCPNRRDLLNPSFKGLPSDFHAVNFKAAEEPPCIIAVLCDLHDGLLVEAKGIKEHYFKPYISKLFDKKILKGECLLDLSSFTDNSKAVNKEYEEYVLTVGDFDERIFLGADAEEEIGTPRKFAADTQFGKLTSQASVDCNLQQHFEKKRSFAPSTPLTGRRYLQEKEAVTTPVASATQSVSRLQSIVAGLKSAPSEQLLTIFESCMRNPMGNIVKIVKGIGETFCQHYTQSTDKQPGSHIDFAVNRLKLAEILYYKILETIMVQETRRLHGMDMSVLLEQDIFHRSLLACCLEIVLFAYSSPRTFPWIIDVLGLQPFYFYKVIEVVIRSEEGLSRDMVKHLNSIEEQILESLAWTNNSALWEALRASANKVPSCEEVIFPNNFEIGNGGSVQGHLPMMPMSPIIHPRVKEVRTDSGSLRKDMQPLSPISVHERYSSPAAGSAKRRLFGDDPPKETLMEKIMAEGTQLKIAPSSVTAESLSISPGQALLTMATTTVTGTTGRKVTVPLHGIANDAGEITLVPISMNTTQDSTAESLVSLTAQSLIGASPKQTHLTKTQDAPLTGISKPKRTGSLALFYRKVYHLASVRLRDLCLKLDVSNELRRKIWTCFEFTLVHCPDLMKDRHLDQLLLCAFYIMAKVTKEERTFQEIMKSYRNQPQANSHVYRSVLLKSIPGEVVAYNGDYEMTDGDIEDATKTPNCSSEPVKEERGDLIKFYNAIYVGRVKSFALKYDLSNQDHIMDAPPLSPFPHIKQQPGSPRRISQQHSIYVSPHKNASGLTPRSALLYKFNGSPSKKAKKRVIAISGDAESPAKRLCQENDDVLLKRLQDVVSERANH
The assay is described as follows: co-IP; as a1, but lysates of RCS cells not treated with FGF.

For assay [2], the target named is T1, p107 (rat (endogenous in RCS)). The assay is described as follows: co-IP; as a1, but lysates of RCS cells after 6 hours of FGF treatment.
Assay [3] has the same target. The experiment in a line: co-IP; endogenous proteins; lysates (modified RIPA without NaF, 1 mg total protein) of RCS cells treated with FGF1 (5 ng/ml) and heparin for the indicated times; IP with anti-PP2A-C (protein A-Sepharose) or agarose-conjugated anti-p107; Western blot with anti-PP2A-C, anti-PP2A-A or anti-p107.
Assay [4] addresses PP2A catalytic C subunit (rat (endogenous in RCS)) (UniProt P63331). The experiment in a line: co-IP; as a1, but lysates of RCS cells not treated with FGF.
The target is the same in assay [5]. The assay is described as follows: co-IP; endogenous proteins; lysates (modified RIPA without NaF, 1 mg total protein) of RCS cells treated with FGF1 (5 ng/ml) and heparin for the indicated times; IP with anti-PP2A-C (protein A-Sepharose) or agarose-conjugated anti-p107; Western blot with anti-PP2A-C, anti-PP2A-A or anti-p107. In general terms: A western blot detects proteins with antibodies after separation by electrophoresis.

Results are given in words; binding and its absence hold for the method and conditions named. Binding seen in cells or lysates may run through a third protein. For some assays here: Binding calls can cover weak binding; strength is not graded here.

For the molecule “PP2A catalytic C subunit (from UniProt P63331) (enzyme)”, the values for the binding entry in assay [1], in assay [2] and in assay [3] were “no binding (only cells not treated with FGF)”, “binds weakly” and “binds”, respectively.
Take “PP2A scaffolding A subunit (PR65) (rat (endogenous in RCS))”: the figures for the binding result in assay [1], in assay [2] and in assay [3] were “no binding (only cells not treated with FGF)”, “binds weakly” and “binds”, respectively.

B1: p107 (protein, UniProt D3ZS28 1-1049)
chain: MFEDEPHAEGAAAVAAAREALQALCQELNLDEGSAAEALDDFTAIRGNYSLEGEVIHWLACSLYVACRKSIIPTVGKGVMEGNCVSLTRILRSAKLSLIQFFSKMKKWMDMSNLPQEFRERIERLERNFEVSTVIFKKFEPIFLDIFQNPYEELPKLPRSRKQRRIPCSVKDLFNFCWTLFVYTKGNFRMIGDDLVNSYHLLLCCLDLIFANAIMCPNRRDLLNPSFKGLPSDFHAVNFKAAEEPPCIIAVLCDLHDGLLVEAKGIKEHYFKPYISKLFDKKILKGECLLDLSSFTDNSKAVNKEYEEYVLTVGDFDERIFLGADAEEEIGTPRKFAADTQFGKLTSQASVDCNLQQHFEKKRSFAPSTPLTGRRYLQEKEAVTTPVASATQSVSRLQSIVAGLKSAPSEQLLTIFESCMRNPMGNIVKIVKGIGETFCQHYTQSTDKQPGSHIDFAVNRLKLAEILYYKILETIMVQETRRLHGMDMSVLLEQDIFHRSLLACCLEIVLFAYSSPRTFPWIIDVLGLQPFYFYKVIEVVIRSEEGLSRDMVKHLNSIEEQILESLAWTNNSALWEALRASANKVPSCEEVIFPNNFEIGNGGSVQGHLPMMPMSPIIHPRVKEVRTDSGSLRKDMQPLSPISVHERYSSPAAGSAKRRLFGDDPPKETLMEKIMAEGTQLKIAPSSVTAESLSISPGQALLTMATTTVTGTTGRKVTVPLHGIANDAGEITLVPISMNTTQDSTAESLVSLTAQSLIGASPKQTHLTKTQDAPLTGISKPKRTGSLALFYRKVYHLASVRLRDLCLKLDVSNELRRKIWTCFEFTLVHCPDLMKDRHLDQLLLCAFYIMAKVTKEERTFQEIMKSYRNQPQANSHVYRSVLLKSIPGEVVAYNGDYEMTDGDIEDATKTPNCSSEPVKEERGDLIKFYNAIYVGRVKSFALKYDLSNQDHIMDAPPLSPFPHIKQQPGSPRRISQQHSIYVSPHKNASGLTPRSALLYKFNGSPSKKAKKRVIAISGDAESPAKRLCQENDDVLLKRLQDVVSERANH
B1: the binding entry in assay [4] is listed as “no binding (only cells not treated with FGF)”; in assay [5] it was “binds”.
